# Reference: PMC10931676 (International Journal of Molecular Sciences, 2024)
# Assay: Permeability and efflux ratio in Caco-2 cells
# Format: in vitro ADME
# Settings: human
# Method: Human colon carcinoma (Caco-2) cells, which were obtained from Military Medical Research Institute, were maintained in Dulbecco’s modified Eagle’s medium. Caco-2 cells were seeded onto […] (PET) in 96-well Falcon insert systems at 2 × 10^5 cells/cm^2 for 21–28 days for confluent cell monolayer formation. […] Test compounds were diluted with the transport buffer (HBSS without BSA) from a 10 mM stock solution to a concentration of 10 µM and applied to the apical or basolateral side of the cell monolayer. Permeation of the test compounds in the direction from A to B or from B to A was determined in duplicate over a 120-min incubation at 37 °C and 5% CO2 with a relative humidity of 95%. In addition, the efflux ratio of each compound was also determined. Test and reference compounds were quantified by LC-MS/MS analysis based on the peak area ratio of analyte/IS. The apparent permeability coefficient Papp (cm/s) was calculated using the following equation:Papp = (dCr/dt) × Vr/(A × C0) where dCr/dt is the cumulative concentration of the compound in the receiver chamber as a function of time (S); Vr is the solution volume in the receiver chamber (0.1 mL on the apical side, 0.25 mL on the basolateral side); A is the surface area for the transport, i.e., 0.0804 cm^2 for the area of the monolayer; C0 is the initial concentration in the donor chamber. […]
smiles,measurement,setting,value
CC(C)NCC(O)COc1ccc(CC(N)=O)cc1 (centres unmarked) [Atenolol],"recovery at 120 min, 10 µM","Caco-2, Caco-2, 10 µM, 120 min, read-out: Mean Recovery % A to B",90.9%
same,"Papp A→B at 120 min, 10 µM","Caco-2, 10 µM, 120-min incubation, 37 °C",0.73 ×10⁻⁶ cm/s
